Results are given in words; binding and its absence hold for the method and conditions named. For part of these data: In cells and extracts the contact can be indirect. Some binding calls cover weakened binding; strength is not graded here.
Experiments:
[1] = target: Flag-AKT1 expressed in zebrafish embryos from injected mRNA (UniProt P31749); assay: co-IP; wild-type zebrafish embryos injected with 200 pg Flag-AKT1 mRNA at the one-cell stage; immunoprecipitation with anti-Flag antibody; endogenous zEtv2 and zScl detected
GST-AKT1 = GST-AKT1 (UniProt P31749); assay: pull-down; GST-AKT1 immobilised on Glutathione-Sepharose 4B beads, incubated with purified zEtv2-(236-345) or zScl (GST cleaved by thrombin) at 4°C for 3 h; SDS-PAGE, Coomassie Blue staining; both purified
Flag-tagged AKT1 = Flag-tagged AKT1 (UniProt P31749); assay: co-IP; HEK293T cells transfected with the indicated plasmids; lysates (TNE or RIPA buffer) incubated with anti-Flag-agarose beads at 4°C for 4 h; western blot

Protein sequences, listed by entry. Tags and fused reporters are not part of them.
UniProt P31749: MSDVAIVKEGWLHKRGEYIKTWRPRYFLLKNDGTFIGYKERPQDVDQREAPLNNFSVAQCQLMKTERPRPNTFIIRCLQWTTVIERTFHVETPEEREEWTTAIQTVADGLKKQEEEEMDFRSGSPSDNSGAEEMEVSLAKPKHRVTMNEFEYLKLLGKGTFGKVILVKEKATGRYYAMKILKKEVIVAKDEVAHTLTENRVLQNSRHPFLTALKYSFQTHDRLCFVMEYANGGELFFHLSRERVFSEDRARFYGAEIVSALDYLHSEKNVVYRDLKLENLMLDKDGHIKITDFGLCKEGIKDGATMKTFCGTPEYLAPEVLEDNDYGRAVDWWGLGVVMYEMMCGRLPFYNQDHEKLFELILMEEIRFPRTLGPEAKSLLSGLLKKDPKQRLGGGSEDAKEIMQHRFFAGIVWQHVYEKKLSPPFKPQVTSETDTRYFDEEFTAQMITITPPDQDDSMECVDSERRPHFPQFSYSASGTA
UniProt O93507: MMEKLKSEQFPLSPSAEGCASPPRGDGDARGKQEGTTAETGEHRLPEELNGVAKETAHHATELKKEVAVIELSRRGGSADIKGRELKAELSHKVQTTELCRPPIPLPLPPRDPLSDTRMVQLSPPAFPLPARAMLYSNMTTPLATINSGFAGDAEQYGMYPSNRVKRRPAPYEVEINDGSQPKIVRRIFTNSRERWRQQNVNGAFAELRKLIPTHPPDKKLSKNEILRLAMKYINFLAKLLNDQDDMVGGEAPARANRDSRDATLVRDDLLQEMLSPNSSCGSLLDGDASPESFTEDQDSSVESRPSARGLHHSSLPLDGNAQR

**Q.** With “endogenous zebrafish Scl (zScl) (from UniProt O93507 1-324)” as the substance, how does the binding [1] read?
**A.** Its binding is “binds”.

**Q.** With “zScl purified from E. coli (GST tag cleaved) (from UniProt O93507 1-324)” as the substance, how does the binding (GST-AKT1) read?
**A.** Its binding is “binds”.

**Q.** “zebrafish Scl (zScl), overexpressed in HEK293T cells (from UniProt O93507 1-324)” was tested. Which binding (Flag-tagged AKT1) did it give?
**A.** Its binding is “binds”.

— article PMC10114070
